# PubChem BioAssay AID504834 (National Center for Advancing Translational Sciences (NCATS), 2011)
# Among all 320,000 compounds or so, about 22,000 (6.9%) were called active. Inconclusive means that the source gave no clear call. Such entries were picked first, then a sample of the others. Calls come from the whole dose curve; as a rule, active = well fitted inhibition curve with a large enough effect; inconclusive = small, poorly fitted or top-dose-only effect, or another doubt; inactive = no such curve, though single readings can be large or run the other way. Potencies beside an inconclusive call are fits to weak or partial responses and may not hold up.
# Test: Primary qHTS for delayed death inhibitors of the malarial parasite plastid, 96 hour incubation
# Conditions: P. falciparum luciferase reporter growth; series mostly up to 28.7 µM; activity change, negative = inhibition: at the top concentration
# Summary of the method: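 Infected RBCs, 2% Hct / 0.05% parasitemia final; luciferase-reporter P. falciparum; cpd 96 h, 37 C, 5% CO2; luciferase detection reagent; luminescence.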
# % is set by controls: 0 for no effect and ±100 for the full control effect; potency is the fitted concentration of half-maximal effect.
Structure (SMILES),"activity change, negative = inhibition",Potency
CCOC(=O)C(=Cc1ccc(F)cc1)C(=O)OCC,inactive: -17.9%,–
COc1ccc(CNC(=O)c2nnn(-c3cccc(C(F)(F)F)c3)c2N)cc1,–,"inconclusive: 9.28 µM [inhibitor, partial curve, poor fit]"
CCOC(=O)N1CCN(c2c(N3CCN(C(=O)OCC)CC3)c(=O)c2=O)CC1,inactive: 3.91%,–
C1CCC(Nc2nc3nonc3nc2N2CCSCC2)C1,inactive: 4.36%,–
Cc1cc2ccccc2nc1SCC(=O)N1CCCC1,–,"inconclusive: 14.7 µM [inhibitor, partial curve, poor fit]"
N#Cc1c(N)sc2c1CCN(C(=O)OCc1ccccc1)C2,–,"inconclusive: 5.86 µM [inhibitor, single point]"
CCCCn1c(SCC(=O)Nc2ccccc2C(F)(F)F)nc2ccsc2c1=O,–,active: 11.7 µM
CC(=O)c1ccc(NC(=O)C2CCCC2)cc1,inactive: 44.9%,–
COc1ccccc1N1CCN(C(=O)c2ccc(Cl)c(S(=O)(=O)N3CCOCC3)c2)CC1,inactive: 10.2%,–
CCN(CCCNC(=O)C1CCN(C(=O)c2cc3sccc3n2C)CC1)Cc1ccccc1,–,"inconclusive: 10.4 µM [inhibitor, single point]"
CCN(CC)S(=O)(=O)c1ccc2[nH]cc(C(=O)NC3CC3)c(=O)c2c1,–,active: 0.465 µM
C=CCn1c(SCC(=O)NC(=O)NC)nnc1C1CCCCC1,–,"inconclusive: 13.1 µM [inhibitor, single point]"
Cc1nc2cccc(C(=O)NCc3ccccc3)c2o1,–,"inconclusive: 18.5 µM [inhibitor, single point]"
C[C@H](NC(=O)c1nc[nH]c1C(=O)N[C@@H](Cc1ccccc1)C(=O)OCc1ccccc1)C(=O)OCc1ccccc1,–,"inconclusive: 0.294 µM [inhibitor, full curve, poor fit]"
COCCCN(C(C)=O)c1nc(-c2ccccc2)cs1,–,"inconclusive: 1.85 µM [inhibitor, partial curve, poor fit]"
COc1ccc(CN2CCNC(=O)C2CC(=O)NCCC2=CCCCC2)c(F)c1 (configuration not stated),–,"inconclusive: 7.38 µM [inhibitor, partial curve, poor fit]"
COc1ccc(CNC(=O)CSc2nc3ccccc3n2C(C)=O)cc1,inactive: 293%,–
C[N+]1([O-])[C@@H]2CC(OC(=O)[C@@H](CO)c3ccccc3)C[C@@H]1[C@H]1O[C@H]12 (some centres not stated),–,"inconclusive: 3.38 µM [inhibitor, full curve, poor fit]"
CCCCNC(=O)COC(=O)c1ccc(Cl)c(S(=O)(=O)N2CCCC2)c1,–,"inconclusive: 18.5 µM [inhibitor, single point]"
CCCN(CC(=O)Nc1ccccc1C)C(=O)C1CCN(S(=O)(=O)c2ccccc2C(F)(F)F)CC1,–,"inconclusive: 9.28 µM [inhibitor, partial curve, poor fit]"
O=C(CC1Oc2ccccc2NC1=O)NCCCN1CCCC1=O (configuration not stated),–,"inconclusive: 11.7 µM [inhibitor, single point]"
Cc1ccc(OC(C)C(=O)Nc2ccc(C)c(S(=O)(=O)Nc3ccc(C)cc3C)c2)cc1 (configuration not stated),–,"inconclusive: 18.5 µM [inhibitor, single point]"
S=c1[nH]nc(CSCc2ccccc2Cl)n1-c1ccccc1,–,"inconclusive: 0.0415 µM [inhibitor, full curve, poor fit]"

Structure (SMILES),"activity change, negative = inhibition",Potency
CC1Cc2cc(/C(O)=C3/C(=O)C(=O)N(CCN4CCOCC4)C3c3cccc(O)c3)ccc2O1 (configuration not stated),–,"inconclusive: 18.5 µM [inhibitor, single point]"
Cc1ccc(NC(=S)NCc2ccccn2)cc1,inactive: 40.5%,–
Cc1cccc(Cn2cc(C=O)c3ccccc32)c1,–,"inconclusive: 0.294 µM [inhibitor, partial curve, poor fit]"
COc1ccc2[nH]c(C(=O)N3CCc4ccccc4C3)c(C)c2c1,–,"inconclusive: 18.5 µM [inhibitor, single point]"
CN(C)/C=C1\C(=O)N(C)N=C1C(F)(F)F,inactive: -4.83%,–
COc1ccccc1N(CN1C(=O)c2ccccc2C1=O)C(=O)c1cccc(C)c1,inactive: -29.8%,–
CN(C)C(=O)c1ccc(NC(=O)COc2ccc([N+](=O)[O-])cc2)cc1,–,"inconclusive: 0.928 µM [inhibitor, partial curve, poor fit]"
Cc1ccc(-c2nc(CN(C)C)cc(CN(C)C)c2O)cc1,–,"inconclusive: 14.7 µM [inhibitor, single point]"
CCn1c(COc2cccc(C)c2)nc2ccccc21,–,"inconclusive: 18.5 µM [inhibitor, single point]"
CCOc1ccc(Nc2c3ccccc3nc3ccccc23)cc1,–,active: 2.08 µM
COc1ccc(C(CNC(=O)CCC(=O)c2ccc(C)s2)N2CCOCC2)cc1 (configuration not stated),–,"inconclusive: 18.5 µM [inhibitor, single point]"
Cc1ccccc1NS(=O)(=O)c1ccc2c(c1)NC(=O)CCS2,–,active: 11.7 µM
O=C(COc1ccc(/C=N/NC(=O)c2ccc(O)cc2)cc1)Nc1ccc([N+](=O)[O-])cc1,–,"inconclusive: 9.28 µM [inhibitor, single point]"
CCOC(=O)NC(=O)/C(N=Nc1cc(C)cc(C)c1)=C(\C)O,–,"inconclusive: 0.415 µM [inhibitor, partial curve, poor fit]"
CC(NC(=O)c1ccco1)C(=O)N1CCCCC1 (configuration not stated),–,"inconclusive: 18.5 µM [inhibitor, single point]"
O=C(NNC(=S)Nc1ccc(F)c(Cl)c1)c1ccccc1Br,inactive: 32.2%,–
CCN(CC(=O)NCc1cccs1)C(=O)/C=C/c1ccc(C)cc1,inactive: -23.7%,–
Cc1cc(C)c(Cc2c(C)nc3c(C(=O)NCc4ccco4)cnn3c2C)c(C)c1,–,active: 11.7 µM
Cc1ccc(C2N(c3ccc(Cl)cc3)C(=O)N3CCCN23)cc1 (configuration not stated),–,"inconclusive: 18.5 µM [inhibitor, single point]"
CNC(=O)/C=C1\NC(C)(C)Cc2ccccc21,–,"inconclusive: 18.5 µM [inhibitor, single point]"
CCn1c(SCC(=O)Nc2cccc(OC)c2)nc2c(c1=O)SCC2,–,"inconclusive: 7.38 µM [inhibitor, partial curve, poor fit]"
O=C(CCn1ccc2cc(S(=O)(=O)N3CCCC3)ccc21)NCc1ccccc1,–,"inconclusive: 2.94 µM [inhibitor, partial curve]"
O=P1(O)C=C(c2ccccc2)NC(c2ccccc2)=C1,–,"inconclusive: 9.28 µM [inhibitor, partial curve, poor fit]"

Structure (SMILES),"activity change, negative = inhibition",Potency
O=C(CN1CCC(NC(=O)c2ccccc2F)CC1)Nc1ccc2c(c1)OCO2,–,"inconclusive: 10.4 µM [inhibitor, single point]"
CN(C(=O)c1ccc(NC(=O)Cc2ccc(NC(=O)C3CCN(C(=O)C4CCCC4)CC3)cc2)cc1)C1CC1,–,active: 2.08 µM
COc1ccc(N(CC(=O)Nc2nccs2)S(=O)(=O)c2c(C)[nH]c(=O)[nH]c2=O)cc1,–,"inconclusive: 18.5 µM [inhibitor, single point]"
Cc1noc(NS(=O)(=O)c2ccc(NC(=O)c3cnc4n(c3=O)CCS4)cc2)c1C,–,"inconclusive: 0.828 µM [inhibitor, partial curve, poor fit]"
COc1ccc(CCNC(=O)c2ccc(Cl)c(S(=O)(=O)N3CCCC3)c2)cc1,–,active: 6.57 µM
CCC(C)Nc1nc(-c2cccc(OC)c2O)nc2ccccc12 (configuration not stated),–,"inconclusive: 9.28 µM [inhibitor, single point]"
CCOc1ccc(C(=O)N2CCc3cc(OC)c(OC)cc3C2)cc1OCC,–,"inconclusive: 11.7 µM [inhibitor, single point]"
CCSC(C)CC1C/C(=N/O)c2c(CC)noc2C1 (configuration not stated),inactive: 7.49%,–
CCOc1ccc(N2C(=O)CC(Sc3nc(C)cc(C)c3C#N)C2=O)cc1 (configuration not stated),–,"inconclusive: 13.1 µM [inhibitor, partial curve, poor fit]"
Cc1cccc(CN2C(=O)CSc3ccc(C(=O)NC4CC4)cc32)c1,inactive: -29.4%,–
C/C(=N\NC(=O)c1ccc(CSc2nc(C)cc(C)n2)cc1)c1ccco1,–,"inconclusive: 0.586 µM [inhibitor, full curve, poor fit]"
COc1ccccc1-c1cc(-c2ccc(O)cc2)nc(N)c1C#N,–,"inconclusive: 4.65 µM [inhibitor, partial curve]"
CC(C)n1ncc2c(C(=O)N3CCN(c4ccccc4)CC3)cc(-c3ccccc3)nc21,–,"inconclusive: 18.5 µM [inhibitor, single point]"
O=C(NC1(C(F)(F)F)C(=O)Nc2c1c(=O)[nH]c(=O)n2Cc1ccccc1)c1ccc(Cl)cc1 (configuration not stated),–,"inconclusive: 0.262 µM [inhibitor, full curve, poor fit]"
O=C(NNS(=O)(=O)c1ccc([N+](=O)[O-])cc1)c1ccc([N+](=O)[O-])cc1,inactive: 13.8%,–
CCN(CC)S(=O)(=O)c1ccc(Cl)c(C(=O)Nc2cccnc2)c1,–,"inconclusive: 14.7 µM [inhibitor, single point]"
O=C(NCCc1c[nH]c2ccccc12)c1ccc2[nH]c(=O)c(=O)[nH]c2c1,inactive: 10.6%,–
CN(Cc1cn[nH]c1-c1cc2ccccc2o1)CC1CCOCC1,–,"inconclusive: 18.5 µM [inhibitor, single point]"
COc1ccc(CCNC(=O)c2c(Cl)ccc(Cl)c2OC)cc1OC,–,"inconclusive: 0.147 µM [inhibitor, full curve, poor fit]"
Cc1ccc(C(=O)N(C)CC(=O)Nc2ccc(Cl)c(C(F)(F)F)c2)cc1S(=O)(=O)N1CCCCC1,–,"inconclusive: 0.522 µM [inhibitor, full curve]"
O=C1CC(N2CCN(c3ccccn3)CC2)C(=O)N1CC(c1ccccc1)c1ccccc1 (configuration not stated),–,"inconclusive: 14.7 µM [inhibitor, partial curve, poor fit]"

# A draw from above in order of count of non-hydrogen atoms, ascending.
Structure (SMILES),"activity change, negative = inhibition",Potency
CCC(C)Nc1nc(-c2cccc(OC)c2O)nc2ccccc12 (configuration not stated),–,"inconclusive: 9.28 µM [inhibitor, single point]"
O=C(NNS(=O)(=O)c1ccc([N+](=O)[O-])cc1)c1ccc([N+](=O)[O-])cc1,inactive: 13.8%,–
O=C(NCCc1c[nH]c2ccccc12)c1ccc2[nH]c(=O)c(=O)[nH]c2c1,inactive: 10.6%,–
COc1ccc(N(CC(=O)Nc2nccs2)S(=O)(=O)c2c(C)[nH]c(=O)[nH]c2=O)cc1,–,"inconclusive: 18.5 µM [inhibitor, single point]"
Cc1ccc(C(=O)N(C)CC(=O)Nc2ccc(Cl)c(C(F)(F)F)c2)cc1S(=O)(=O)N1CCCCC1,–,"inconclusive: 0.522 µM [inhibitor, full curve]"
